We go through 40 molecules from PubChem BioAssay AID493014 (National Center for Advancing Translational Sciences (NCATS), 2011).

The assay is described as follows: qHTS Assay to Find Inhibitors of Chronic Active B-Cell Receptor Signaling. To be noted: ABC-DLBCL IkBa-CBG/CBR reporter, luminescence ratio (green luciferase fused to IkBa over red control in TMD8 lymphoma cells), 4 h. The gist of the method:
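Doxycycline induced both beetle luciferases in TMD8 lymphoma cells; IKK-driven degradation limits the IkappaBalpha-fused green signal, while red luminescence normalises for cell number and nonspecific effects. Compounds tested up to 46 uM, 4 hrs.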

The mark [1] stands for this setting: measured here: CBR red luminescence, cell number.
Setting [2] is: measured here: IkBa-CBG green luminescence.

SMILES strings stand for the structures. Some of the results follow. Further columns of the screen follow, without active or inactive calls. The list favours compounds with an active or inconclusive main result. The note in brackets gives the kind of curve behind each potency; many fits are weak.

In general, AC50 refers to the midpoint of the concentration-response curve, whichever way the signal moves. Take `COc1ccccc1/C=C/C(=O)NC(=S)N(C)C1CCCCC1`: under setting [1], the AC50 was 35.5 µM [falling, single point].

With `COC(=O)c1ccc(CN2C(=O)C3CCCCC3C2=O)o1` (stereo not drawn), the AC50 under setting [1] is 0.316 µM [falling, full curve, poor fit].

In the case of `COc1cc2c(cc1OC)CN(C1CCC(C)CC1)CC2` (stereo not drawn), under setting [1], the half-maximal activity concentration (AC50) is 6.31 µM [rising, partial curve, poor fit].

`C/C(=N\N=C\c1ccc(N(C)C)cc1)c1cccc([N+](=O)[O-])c1`: the AC50 under setting [1] is 25.9 µM [rising, partial curve, poor fit].

Regarding `CC(C)CN(C(=O)CN1CCN(c2ccc([N+](=O)[O-])cc2)CC1)c1c(N)n(CC(C)C)c(=O)[nH]c1=O`, the AC50 under setting [1] was 3.98 µM [rising, partial curve, poor fit].

`Cc1ccccc1-c1nc(CS(=O)CC(=O)NCc2ccc3c(c2)OCO3)c(C)o1` (stereo not drawn): the half-maximal activity concentration (AC50) under setting [1] is 22.4 µM [falling, single point].

Consider `Cc1cccc(NC(=O)c2ccc(NC(=O)c3ccccc3Br)cc2)c1`, for which the AC50 under setting [1] was 8.91 µM [falling, partial curve, poor fit].

Turning to `CC1Sc2ccc(S(=O)(=O)N3CCC(C(=O)NCc4ccc(Cl)cc4)CC3)cc2NC1=O` (stereo not drawn), the AC50 under setting [1] was 20 µM [falling, partial curve, poor fit].

On to `COC(=O)c1[nH]c2ccccc2c1Sc1ccccc1`, for which the half-maximal activity concentration (AC50) under setting [1] is 31.6 µM [rising, single point].

Turning to `CCCOc1ccc(N2C(=O)CC(N(CCc3ccc(OC)c(OC)c3)C(=S)Nc3ccccc3)C2=O)cc1` (stereo not drawn), the AC50 under setting [1] is 6.51 µM [falling, partial curve].

In the case of `O=C(CCN1C(=O)COc2ccccc21)N1CCCCC1`, the AC50 under setting [1] is 29.1 µM [rising, single point].

In the case of `N#CC1=C(N)Oc2c(O)cc3ccccc3c2C1c1ccsc1` (stereo not drawn), the AC50 is, setting by setting: under setting [1], 23.1 µM [falling, partial curve, poor fit]; under setting [2], 25.9 µM [rising, single point].

As for `COCC(=O)Nc1ccc(C)c(Cl)c1`, the AC50 under setting [1] was 4.11 µM [rising, full curve, poor fit].

In the case of `CCn1c2ccccc2c2cc(C3C(C#N)=C(N)Oc4n[nH]c(COC)c43)ccc21` (stereo not drawn), the AC50 runs as follows: under setting [1], 29.1 µM [rising, partial curve, poor fit]; under setting [2], 13 µM [falling, partial curve].

In the case of `Cc1ccc(N/N=C(\C#N)C(=N)N2CCCCCC2)cc1`, under setting [1], the AC50 was 35.5 µM [falling, partial curve, poor fit].

For the molecule `CCN(CC)C(=O)Oc1ccc2ccccc2c1Cl`, the AC50 under setting [1] was 9.2 µM [rising, partial curve, poor fit].

`N#Cc1cc(Oc2cccc3cccnc23)c(-n2nnc3ccccc32)cc1C#N`: the AC50 under setting [2] is 5.62 µM [falling, single point].

`Cc1nnc(N/N=C/c2cccc(OCc3ccc(Cl)c(Cl)c3)c2)n1N`: the AC50 under setting [1] is 29.1 µM [falling, single point].

Consider `O=C(O)/C=C/S(=O)(=O)c1ccc2ccccc2c1`, for which the AC50 under setting [1] was 15.8 µM [falling, single point].

For `COc1ccccc1NC(=O)c1cc(N2C(=O)C3C4CCC(C4)C3C2=O)ccc1Cl` (stereo not drawn), under setting [1], the AC50 was 10 µM [falling, partial curve].

Consider `CCC(=O)N1CC2(CC(c3cccc(NC(=O)COc4ccc(Cl)cc4)c3)=NO2)C[C@@H]1C(N)=O` (stereo partly drawn), for which the AC50 under setting [1] is 22.4 µM [falling, single point].

Take `C[C@H](CO)N1C[C@H](C)[C@@H](CN(C)S(=O)(=O)c2cccs2)Oc2c(NC(=O)Nc3ccc4c(c3)OCO4)cccc2C1=O`: the AC50 under setting [1] is 16.4 µM [falling, single point].

Turning to `CCOC(=O)N1CCN(c2ncnc3scc(-c4ccc(Cl)cc4)c23)CC1`, under setting [1], the AC50 is 2.24 µM [rising, partial curve].

With `CNC(=S)N(C1=NCC(c2ccc([N+](=O)[O-])cc2)S1)c1ccccc1` (stereo not drawn), the AC50 under setting [1] is 35.5 µM [falling, single point].

As to `CCCc1nnc(NC(=O)CCC(=O)N2CCN(CCn3c(C)ccc3C)CC2)s1`, the concentration at half-maximal activity (AC50) under setting [1] is 11.2 µM [rising, single point].

`COc1ccccc1NC(=O)Nc1ccc(N2CCOCC2)cc1`: under setting [1], the AC50 is 3.16 µM [falling, full curve].

Consider `Cc1ccc(OCCCC(=O)N2CCOCC2)c(C)c1`, for which the AC50 under setting [1] is 7.31 µM [rising, partial curve, poor fit].

As to `O=C(Nc1ccc(Br)cn1)c1cccc(S(=O)(=O)N2CCCC2)c1`, the AC50 under setting [1] was 23.1 µM [falling, single point].

In the case of `Cc1ncc(/C=C2\C(=O)Nc3ccccc32)[nH]1`, under setting [1], the AC50 is 12.6 µM [falling, partial curve, poor fit].

Turning to `Cc1c(CCC(=O)O)c(=O)oc2cc(OCc3cccc(Cl)c3)ccc12`, under setting [1], the concentration at half-maximal activity (AC50) is 6.31 µM [falling, single point].

Consider `Cc1ccc2[nH]c3nc(N/N=C/c4cccc(O)c4)nnc3c2c1`, for which the AC50 is, setting by setting: under setting [1], 1.12 µM [falling, full curve]; under setting [2], 1.12 µM [rising, full curve, poor fit].

In the case of `CC(=Nc1cccc(O)c1)c1sc2ccccc2c1O`, the AC50 under setting [1] was 32.6 µM [rising, single point].

For the molecule `O=C1c2cccnc2C(=O)N1c1cccc(-c2nc3ccccc3o2)c1`, the AC50 under setting [1] was 18.4 µM [falling, single point].

For the molecule `COc1ccc(Cc2nc3ccccc3n2C)cc1`, the AC50 under setting [1] is 6.31 µM [falling, single point].

In the case of `C=CC[C@H](CC(=O)NCCO)C(=O)N[C@H](COC(=O)[C@@H](CC=C)Cc1ccc(F)cc1)Cc1ccccc1`, the AC50 under setting [1] was 20.6 µM [falling, single point].

On to `CNc1ccccc1C(=O)OCC(=O)c1ccccc1`, for which, under setting [1], the AC50 is 20.6 µM [falling, partial curve].

`Cc1ccc(NC(=O)c2ccc(Cl)c(NC(=O)c3cccs3)c2)cc1`: under setting [1], the AC50 is 35.5 µM [falling, single point].

For `COc1ccc(/C=C/C(=O)O/N=C(\N)c2ccccn2)cc1OC`, under setting [1], the AC50 is 23.1 µM [falling, single point].

As for `Cc1ccc(/C=C2\OC(=O)c3ccccc32)cc1`, under setting [1], the AC50 is 5.62 µM [rising, full curve, poor fit].

On to `COc1ccccc1C1c2ccc3ccccc3c2Oc2ncn(CCN(C)C)c(=N)c21` (stereo not drawn), for which, under setting [2], the concentration at half-maximal activity (AC50) was 35.5 µM [falling, single point].
